Source: patent EP1752538A1
No constants are given. Whether binding was seen depends on the method and setting. Some binding calls cover weakened binding; strength is not graded here.

By UniProt entry, the sequences of proteins in these tests, tags left out. Residues count along the entry.
UniProt P00760, residues 24-246: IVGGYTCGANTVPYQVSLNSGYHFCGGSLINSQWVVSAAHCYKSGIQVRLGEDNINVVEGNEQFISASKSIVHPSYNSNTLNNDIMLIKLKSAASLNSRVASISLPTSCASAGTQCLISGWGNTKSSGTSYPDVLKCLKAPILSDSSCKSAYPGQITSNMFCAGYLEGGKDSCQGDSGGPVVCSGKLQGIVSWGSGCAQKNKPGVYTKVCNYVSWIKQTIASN
UniProt P03952, residues 20-638: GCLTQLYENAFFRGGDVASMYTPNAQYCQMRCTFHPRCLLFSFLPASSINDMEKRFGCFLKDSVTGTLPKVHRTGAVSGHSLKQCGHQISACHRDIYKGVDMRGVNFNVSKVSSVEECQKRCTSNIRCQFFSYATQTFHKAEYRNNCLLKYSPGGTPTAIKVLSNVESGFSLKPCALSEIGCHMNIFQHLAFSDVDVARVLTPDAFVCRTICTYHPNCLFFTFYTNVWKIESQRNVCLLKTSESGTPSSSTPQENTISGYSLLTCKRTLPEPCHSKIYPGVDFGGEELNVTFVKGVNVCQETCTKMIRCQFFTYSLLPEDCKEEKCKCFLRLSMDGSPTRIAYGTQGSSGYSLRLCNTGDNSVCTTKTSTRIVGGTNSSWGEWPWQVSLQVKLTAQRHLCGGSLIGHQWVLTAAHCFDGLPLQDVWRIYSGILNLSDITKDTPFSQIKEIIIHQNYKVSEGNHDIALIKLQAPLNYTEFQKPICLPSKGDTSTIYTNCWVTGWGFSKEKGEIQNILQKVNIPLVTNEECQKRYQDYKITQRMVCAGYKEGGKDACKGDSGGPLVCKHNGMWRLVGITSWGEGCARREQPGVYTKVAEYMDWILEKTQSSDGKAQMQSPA

What was measured:
[1] = target: bovine trypsin (type III) (bovine) (UniProt P00760); assay: trypsin inhibition assay of column fractions, GPK-AMC substrate
[2] = target: human plasma kallikrein (human) (UniProt P03952); assay: kallikrein inhibition assay of column fractions, Pro-Phe-Arg-AMC substrate

B1: native human placental bikunin isolated from human placenta (protein)
chain: ADRERSIHDFCLVSKVVGRCRASMPRWWYNVTDGSCQLFVYGGCDGNSNNYLTKEECLKKCATVTENATGDLATSRNAADSSVPSAPRRQDSEDHSSDMFNYEEYCTANAVTGPCRASFPRWYFDVERNSCNNFIYGGCRGNKNSYRSEEACMLRCFRQQENPPLPLGSKVVVLAGAVS
modifications: asparagine 30 silent in sequencing, likely glycosylated
For B1, the binding [1] was “binds” and the binding [2] was “binds”.
